Experimental data from article PMC12824170.
No constants are given. Whether binding was seen depends on the method and setting. In cells and extracts the contact can be indirect. Some results given as binding are weak or reduced against the parent protein; the word gives no strength.

Sequences of proteins named here, by UniProt entry; tags and fusion partners are left off.
UniProt O00303: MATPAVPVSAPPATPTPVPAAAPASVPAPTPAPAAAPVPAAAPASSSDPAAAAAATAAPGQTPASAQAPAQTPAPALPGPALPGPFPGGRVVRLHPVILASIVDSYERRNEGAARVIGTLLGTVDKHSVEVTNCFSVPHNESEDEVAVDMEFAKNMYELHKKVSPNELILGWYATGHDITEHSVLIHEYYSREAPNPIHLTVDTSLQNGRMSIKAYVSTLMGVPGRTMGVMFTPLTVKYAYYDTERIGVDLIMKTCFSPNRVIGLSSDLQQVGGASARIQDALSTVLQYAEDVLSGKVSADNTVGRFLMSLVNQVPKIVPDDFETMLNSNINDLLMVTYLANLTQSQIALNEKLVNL

Target: T1, lysosome-associated protein LAMP1 (human (endogenous in U16 muscle cells)) (UniProt P11279)
T1 sequence: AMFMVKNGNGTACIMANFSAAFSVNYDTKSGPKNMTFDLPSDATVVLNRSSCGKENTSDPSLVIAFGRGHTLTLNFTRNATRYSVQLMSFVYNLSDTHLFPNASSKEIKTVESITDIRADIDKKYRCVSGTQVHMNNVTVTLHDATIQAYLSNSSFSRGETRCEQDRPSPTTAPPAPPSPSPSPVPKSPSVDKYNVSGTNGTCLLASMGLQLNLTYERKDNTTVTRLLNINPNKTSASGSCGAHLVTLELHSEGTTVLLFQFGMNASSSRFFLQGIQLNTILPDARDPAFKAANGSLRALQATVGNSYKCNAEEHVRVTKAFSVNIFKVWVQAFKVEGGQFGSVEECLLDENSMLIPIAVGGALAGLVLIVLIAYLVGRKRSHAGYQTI
Experiment: co-IP; endogenous proteins of parental MT (day 6) lysate, 500 ug protein; anti-eIF3f or anti-LAMP1 antibody or rabbit IgG isotype overnight at 4 C, Protein G/Protein A Dynabeads; lysis buffer 10% glycerol, 50 mM Tris-HCl pH 7.5, 150 mM NaCl, 1% Triton X-100, 1 mM EDTA; Western blot

binding: binds
Substance: endogenous eIF3f of parental myotubes (from UniProt O00303 1-357)
